In PMC5179943 one finds binding data, which are given here for one substance.

Protein sequences, listed by entry. Tags and fused reporters are not part of them. Residues count along the entry.
UniProt P02769, residues 25-607: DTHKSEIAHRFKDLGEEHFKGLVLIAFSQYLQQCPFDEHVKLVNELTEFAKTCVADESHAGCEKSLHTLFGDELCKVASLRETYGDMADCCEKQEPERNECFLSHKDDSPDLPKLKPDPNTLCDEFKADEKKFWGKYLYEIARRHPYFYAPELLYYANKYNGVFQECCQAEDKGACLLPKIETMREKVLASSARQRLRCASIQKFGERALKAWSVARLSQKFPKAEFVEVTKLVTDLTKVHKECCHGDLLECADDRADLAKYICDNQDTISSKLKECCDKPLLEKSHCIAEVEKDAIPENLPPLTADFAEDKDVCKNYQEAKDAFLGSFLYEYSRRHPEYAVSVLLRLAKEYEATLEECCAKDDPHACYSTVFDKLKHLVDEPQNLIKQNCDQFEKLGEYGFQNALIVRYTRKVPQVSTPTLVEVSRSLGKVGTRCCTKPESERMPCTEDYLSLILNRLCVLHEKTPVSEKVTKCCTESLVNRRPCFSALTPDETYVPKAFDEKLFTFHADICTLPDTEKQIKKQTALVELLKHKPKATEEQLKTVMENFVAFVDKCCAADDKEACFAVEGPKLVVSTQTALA
UniProt P10909, residues 23-449: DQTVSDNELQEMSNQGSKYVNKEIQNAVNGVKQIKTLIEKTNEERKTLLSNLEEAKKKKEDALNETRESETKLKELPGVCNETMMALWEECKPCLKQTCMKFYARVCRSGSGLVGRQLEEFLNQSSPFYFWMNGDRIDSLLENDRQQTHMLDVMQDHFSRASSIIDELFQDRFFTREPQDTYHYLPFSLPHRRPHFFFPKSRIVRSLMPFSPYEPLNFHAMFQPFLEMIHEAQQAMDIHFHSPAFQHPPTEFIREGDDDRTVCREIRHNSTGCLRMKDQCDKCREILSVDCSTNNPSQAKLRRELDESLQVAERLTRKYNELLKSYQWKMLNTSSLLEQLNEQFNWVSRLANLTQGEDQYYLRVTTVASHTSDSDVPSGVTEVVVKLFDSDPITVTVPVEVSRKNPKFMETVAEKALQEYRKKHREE

The target of assay [1] is bovine serum albumin (BSA) (bovine) (UniProt P02769). Description: ELISA; solid-phase binding; human PLXNA4 coated on MaxiSorp plates overnight in PBS, blocked in 4% BSA-PBS-T; increasing amounts of human CLU in 0.5% BSA-PBS-T, 10 min at 37 °C; detected with biotinylated anti-CLU antibody and streptavidin-HRP; average of three independent experiments; both …. For orientation: In an ELISA, binding on a coated surface is turned into a signal by an enzyme label.

The next assay has as its target ovalbumin (UniProt P01012). Described as above.

No constants are given. Whether binding was seen depends on the method and setting.

Take “Mammalian-expressed, recombinant human CLU protein (from UniProt P10909 23-449) (ligand)”: the binding entry (in assay [1]; with ovalbumin) was “no binding” in each case.
